Assay results as given in the supplement of paper PMC10338343.
± gives the standard deviation. The entries are a selection whose mix differs from that of the whole data set. Many of these values have a large error.
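Further: 1 nM active piRISC with 0.1 nM target library at 33 °C single turnover.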

Each sequence was assayed on MIWI (PIWIL1) piRISC loaded with piRNA #2 (30 nt) (assay: pre-steady-state target cleavage rate (min^-1); MIWI and MILI are mouse PIWI proteins and EfPiwi is from a freshwater sponge; tags in brackets are library labels; higher = faster piRNA-guided slicing of the target). Settings: guide: piRNA #2 5'p-UUAGGUAACCCAGUAGAUCCAGAGGAAUUC; auxiliary factor: 500 nM mouse GTSF1.
Method in brief: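 For Cleave-'n-Seq, a transcribed, DNA-blocked target RNA library […] met 1 nM active affinity-purified piRISC with one synthetic guide at 33 °C for 0–8 or 0–960 min in HEPES–potassium acetate buffer, with or without 500 nM GTSF1 partner protein. Uncleaved targets were sequenced and normalised to depth and weakly complementary targets, with three trials pooled and k3 capped at 0.0001 min^-1. A burst-and-steady-state fit supplied the pre-steady-state cleavage rate.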
With CUUAAGGAGACCUUCAAGUGGGUUACCUAA the “pre-steady-state target cleavage rate” value was 0.000883 ± 0.0086. CUUAAGGAGUGGAUCUACUCGGUUUCCUAA was tested, and the “pre-steady-state target cleavage rate” value was 0.000707 ± 0.016. For CUUAAGGAGACCAUCUACUGGGUUGCCUAA, the “pre-steady-state target cleavage rate” value was 0.00188 ± 0.0067. For “CUUAAGGAGACCUAGAACUGGGUUACCUAU [g2:g14:cont:t1U]”, the “pre-steady-state target cleavage rate” value was 0.000167 ± 0.021. CUUAAGGAGACCAUGUACUGCGUUACCUAA was tested, and the “pre-steady-state target cleavage rate” value was 0.000719 ± 0.0078. With CUUAAGGAGUGGUUCUACUGGGAUACCUAA the “pre-steady-state target cleavage rate” value was 0.00364 ± 0.0037. CUUAAGGAGAGGAUCUACUGAGGUUACCUAA was tested, and the “pre-steady-state target cleavage rate” value was 0.000723 ± 0.012. For CUUAAGGAGACCUUCUACUCGGUUACGUAA, the “pre-steady-state target cleavage rate” value was 0.000941 ± 0.0099. For CUUAAGGAGAGGAACUACUGGGUUAGCUAA, the “pre-steady-state target cleavage rate” value was 0.000321 ± 0.032. For CAAUUCCUCUGGAUCUCACUGGGUUACCUAA, the “pre-steady-state target cleavage rate” value was 0.0033 ± 0.0047. CUUAAGGAGACGAUCUACUCGGUUUCCUAA was tested, and the “pre-steady-state target cleavage rate” value was 0.000949 ± 0.01. With CAAUACCUCUCGAUCUACUGGGUUACCUAA the “pre-steady-state target cleavage rate” value was 0.625 ± 0.056. With CUUAAGGAGUGGAUCUUCUGGGUUACCUUA the “pre-steady-state target cleavage rate” value was 0.00261 ± 0.0041. With CUUAAGGAGACGAUCUACUGGGUGACCUAA the “pre-steady-state target cleavage rate” value was 0.000263 ± 0.035. For CUUAAGGAGAGGAUCUACCGGGUUACCUAA, the “pre-steady-state target cleavage rate” value was 0.000588 ± 0.015. With CUUAAGGAGACCUAGUUCUGGGAUACCUAA the “pre-steady-state target cleavage rate” value was < 0.0001. For CUUAAGGAGACCAUCAACUGGGUUAGCUAA, the “pre-steady-state target cleavage rate” value was 0.000505 ± 0.015. With CAAUUCCUCUGCAUCUACUGGGUUACCUAA the “pre-steady-state target cleavage rate” value was 0.57 ± 0.049. CUUAAGGAGAGGAUCUAGUGGGUUACGUAA was tested, and the “pre-steady-state target cleavage rate” value was 0.00221 ± 0.0061. In the case of CUUAAGGAGACGUUCUUCUGGGUUACCUAA, the “pre-steady-state target cleavage rate” value is reported as 0.000559 ± 0.016. In the case of CUUAAGGAGACCAUCUACUGGGUUACACUAA, the “pre-steady-state target cleavage rate” value is reported as 0.00113 ± 0.007. CUUAAGGAGACCUAGAUCUGCGGUUACCUAA was tested, and the “pre-steady-state target cleavage rate” value was 0.000646 ± 0.01. In the case of GAAUUCCUCUGGUUCUACUGGGUUACCUUA, the “pre-steady-state target cleavage rate” value is reported as 0.427 ± 0.064. In the case of CUUAAGGAGACCUAGAUCUGGGUUACGCUAA, the “pre-steady-state target cleavage rate” value is reported as 0.000817 ± 0.0095. For CUUAAGGAGACCUAGAUCUGGGUUACACUAA, the “pre-steady-state target cleavage rate” value was 0.000829 ± 0.01. With CUUAAGGACUGGAUCUACUGGCUUACCAAA the “pre-steady-state target cleavage rate” value was 0.000463 ± 0.043. In the case of CUUUUCCUCUGGAUCUUCUGGGAUACCUAA, the “pre-steady-state target cleavage rate” value is reported as 0.146 ± 0.022. In the case of CUUAAGGAGACGAUCUACUGGGUUUCCUUA, the “pre-steady-state target cleavage rate” value is reported as 0.00108 ± 0.0075. With CUUAAGGAGAGGAUCUACUGGGUUUCCAAA the “pre-steady-state target cleavage rate” value was 0.000477 ± 0.014. With CUUAAGGACUGGAUCUACUGGCUUACGUAA the “pre-steady-state target cleavage rate” value was 0.00804 ± 0.012. CUUAAGGAGACCUUCUACUGGGUUACCUCA was tested, and the “pre-steady-state target cleavage rate” value was 0.00167 ± 0.0056. For CUUAAGGAGACCUACUACUGGUUUACCUAA, the “pre-steady-state target cleavage rate” value was 0.00158 ± 0.0059. In the case of CUUAAGGAGUGGAUCUUCUGCGUUACCUAA, the “pre-steady-state target cleavage rate” value is reported as 0.00315 ± 0.0064. With CAAUUCCUCUGGCAUCUACUGGGUUACCUAA the “pre-steady-state target cleavage rate” value was 0.636 ± 0.17. For CUUAAGGAGACCUAGAUGACGGGUACCUAA, the “pre-steady-state target cleavage rate” value was 0.000265 ± 0.038. In the case of CUUAAGCUCUGGAUCUACUGGCAAACCUAA, the “pre-steady-state target cleavage rate” value is reported as 0.000723 ± 0.013. CUUAAGGUCUGGAUCUUCUGGGAUACCUAA was tested, and the “pre-steady-state target cleavage rate” value was 0.0453 ± 0.017. For CUUAAGGAGACCUAGAUCUGGGUUGCCUAA, the “pre-steady-state target cleavage rate” value was 0.000628 ± 0.012. CUUAAGGAGACGAUCUACUGGGUUUCCAAA was tested, and the “pre-steady-state target cleavage rate” value was 0.00119 ± 0.0086. For CUUAAGGAGACGAUCUACGGGGUUACCUAA, the “pre-steady-state target cleavage rate” value was 0.00123 ± 0.008. In the case of CAAUUCCUCUGGUUCUACUGGGUUACCUUA, the “pre-steady-state target cleavage rate” value is reported as 0.475 ± 0.066. For CUUUUCCUCAGGAUCUACUGCGUUACCUAA, the “pre-steady-state target cleavage rate” value was 0.524 ± 0.062. With CUAUUCCUCUGGAUCUACUGGCUUAGCUAA the “pre-steady-state target cleavage rate” value was 0.00404 ± 0.005. In the case of CUUAAGGAGACCAUCUAUGGGUUACCUAA, the “pre-steady-state target cleavage rate” value is reported as 0.00149 ± 0.0074. For CUUAAGGAGUGGAUCUACUGGGUUACUAA, the “pre-steady-state target cleavage rate” value was 0.00407 ± 0.0048. In the case of CUUAAGGACUGGAUGCUACUGGGUUACCUAA, the “pre-steady-state target cleavage rate” value is reported as 0.0245 ± 0.033. “CUAUUCCUCUGGAUCUACUGGGUUACCUAA [g2:g28:cont:t1A]” was tested, and the “pre-steady-state target cleavage rate” value was 0.388 ± 0.062. For CUUAAGGAGAGGAUCUUCUGGGUUACGUAA, the “pre-steady-state target cleavage rate” value was 0.00329 ± 0.0057. For GAUUUCCUCUCGAUCUACUGGGUUACCUAA, the “pre-steady-state target cleavage rate” value was 0.66 ± 0.067. With CUUAAGGACUGGAUCUACUGGCUAACCUAA the “pre-steady-state target cleavage rate” value was 0.000832 ± 0.028. For CUAUUCCUCUGGAUCUACUGGGUACCUAA, the “pre-steady-state target cleavage rate” value was 0.000721 ± 0.011. In the case of CUUAAGGAGACGAUCUAGUGGGUAACCUAA, the “pre-steady-state target cleavage rate” value is reported as 0.000233 ± 0.014. With CUUAAGGAGACCUUCUACUGGGAUACCAAA the “pre-steady-state target cleavage rate” value was 0.00128 ± 0.007. With CUUAAGGAGACCUUCUACUGGGUUGCCUAA the “pre-steady-state target cleavage rate” value was 0.00146 ± 0.0071. CUUAAGGAGACCUAGAACUGGGUUCACCUAA was tested, and the “pre-steady-state target cleavage rate” value was 0.000216 ± 0.055. For CUUAAGGAGACCUACUACUAGGGUUACCUAA, the “pre-steady-state target cleavage rate” value was 0.00113 ± 0.0071. GAAUUCCUGUGGAUCUACUGGGUUACGUAA was tested, and the “pre-steady-state target cleavage rate” value was 0.637 ± 0.063. CUUAAGGAGACGAUCUCUGGGUUACCUAA was tested, and the “pre-steady-state target cleavage rate” value was 0.000562 ± 0.015. CUUAAGGAGACGAUCUACACGGUUACCUAA was tested, and the “pre-steady-state target cleavage rate” value was 0.000681 ± 0.018. For CUUAAGGAGACCUUCUACUGGGUUAGCAAA, the “pre-steady-state target cleavage rate” value was 0.000125 ± 0.027. CUUAAGGAGAGCUUCUACUGGGUUACCUAA was tested, and the “pre-steady-state target cleavage rate” value was 0.00312 ± 0.0035. With CUUAAGGAGAGGAUGUACUGCGUUACCUAA the “pre-steady-state target cleavage rate” value was 0.00241 ± 0.0072. In the case of CUUAAGGAGACCUACUACUGGGUUACCAAA, the “pre-steady-state target cleavage rate” value is reported as 0.00124 ± 0.0047. In the case of CUUAAGGAGACCAUCUACUUGGUUACCUAA, the “pre-steady-state target cleavage rate” value is reported as 0.00125 ± 0.0065. In the case of CUUAAGCUCUGGAUCUACUCGGGUUACCUAA, the “pre-steady-state target cleavage rate” value is reported as 0.000718 ± 0.011. With CUUAAGCUCUGGAUCUACCUGGGUUACCUAA the “pre-steady-state target cleavage rate” value was 0.000249 ± 0.026. With CUUAAGGAGUGGAUCUACUGGGAAACCUAA the “pre-steady-state target cleavage rate” value was 0.000465 ± 0.012. CUUAAGGAGACGAUGUUCUGGGUUACCUAA was tested, and the “pre-steady-state target cleavage rate” value was 0.000346 ± 0.022. “CUUAAGGAGACCUACUACUGGGUUACCUAC [g2:g16:cont:t1C]” was tested, and the “pre-steady-state target cleavage rate” value was 0.00248 ± 0.0052. In the case of CUUAAGGAGACCAUCUCACUGGGUUACCUAA, the “pre-steady-state target cleavage rate” value is reported as 0.000646 ± 0.011. With CUUAAGGAGAGGAUCUACUGCCAUACCUAA the “pre-steady-state target cleavage rate” value was 0.000529 ± 0.015.
